Measurements reported in patent US20260256712A1, “COMPOUNDS FOR INHIBITING GRAM-POSITIVE BACTERIA” (priority 2022, published 2026).
Some of these results come from one statement about several compounds together. At least one compound was matched to its structure with a doubt left. Some ranges recur; such a range may be that of the whole group of compounds.

Test system: ternary complex between Cy5-EF-Tu:GTP and Cy3-Phe-tRNAPhe
Assay: EF-Tu:tRNA FRET assay (qHTS and secondary FRET assay)
Type: biochemical, E. coli
Settings: control compounds; read-out: inhibition of FRET signal, EC50
Source text: Upon formation of functional ternary complex between Cy5-EF-Tu:GTP and Cy3-Phe-tRNAPhe, fluorescence energy transfer (FRET) occurs between Cy3 and Cy5 fluorophores located within Förster radius (~17 Å) when Cy3 is excited at 532 nm, and as a result the complex emits light at 665 nm. Presence of inhibitors of the ternary complex prevents complex from forming, thereby reducing fluorescence intensity at 665 nm.
Inhibitors of EF-Tu:tRNA translation were identified using this in vitro FRET system. Quantitative high throughput screening (qHTS) was performed on the LOPAC library containing 1,280 chemicals to identify potential leads for antibiotic development. Results for the 75 top-ranked compounds based upon this in vitro FRET system are depicted in FIGS. 1A and 1B as well as their activity against gram-positive bacteria in vivo using disc-diffusion, microtiter plate and viable count assay.
Cy5-EF-Tu: EF-Tu from E. coli was expressed and labeled with Cy5 as described by Bhatt et al. (Assay Drug Dev Technol. 2018 16(4):212-221) and Chudaev et al. (Protein Eng. Des Sel. February 26 (2013). Sulfonated versions of Cy5 maleimide and Cy3 NHS ester were obtained from GE Healthcare/Amersham or Lumiprobe. Ammonium acetate, magnesium acetate, magnesium chloride, potassium chloride, HEPES, DTT, ATP, GTP, TCEP, L-phenylalanine were obtained from Sigma. […]
Equipment: EnVision 2104 Multilabel Plate Reader (PerkinElmer) with excitation optical filter 2100-5050 Bodipy TMR FR 531 nm and emission optical filter 2100-5770 Cy5 685 nm. […]
All solutions were prepared fresh in assay buffer consisting of 70 mM HEPES-KOH (pH7.6), 52 mM ammonium acetate, 8 mM magnesium chloride, 30 mM potassium chloride, and 2.6% glycerol. […] FRET was then detected using 1) a ViewLux high-throughput microplate imager (PerkinElmer) equipped with Ex: 525/20 and Em: 671/8 filters; or 2) an Envision Multimode plate reader (PerkinElmer) equipped with Ex: 530/25 and Em: 665 filters. Assay performance, as calculated by Z′ factor as described by Zhang et al (J Biomol Screen, 1999), was favorable for the Envision plate reader. […]

Compound | EC50 [nM]
Kirromycin [reference compound] | 1000 to 5000
CNC(=O)C[C@@H]1NC(=O)c2csc(n2)-c2ccc(-c3nc(C4=N[C@H](C(=O)N5CCC[C@H]5C(N)=O)CO4)cs3)nc2-c2csc(n2)-c2csc(n2)[C@H]([C@@H](O)c2ccccc2)NC(=O)CNC(=O)c2nc(sc2COC)[C@H](C(C)C)NC(=O)c2nc1sc2C [GE2270, reference compound] | 1000 to 5000
Factumycin [reference compound] | 1000 to 5000
